Measurements reported in PubChem BioAssay AID743454 (Peter MacCallum Cancer Centre, 2014)
Test: 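Search for knock-downs that restore vorinostat killing in resistant colon cancer cells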 (primary screen). Cells: human HCT116-VR colon cancer cells, selected for vorinostat resistance. Knock-down reagent: siRNA pool against human genes, 40 nM siRNA pool. Timing: vorinostat for 24 h, read-out about 72 h after transfection. Conditions: vorinostat at 2.5 µM final. Read-out: 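Cell viability by CellTiter-Fluor and caspase 3/7 activity by luminescence, each scaled to mock wells per plate, duplicates averaged, then robust z-scored over all plates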. Direction: viability robust z-score: higher = more viable cells than screen typical; caspase robust z-score: higher = more caspase 3/7 activity than screen typical. Rule for the call: 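Hits are knock-downs in viability class RV1/RV2 or caspase class CA1/CA2, excluding ones that killed cells in the no-drug cell-count arm; hits then retested with single siRNAs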.
Here is a random part of about 18,000 deposited reagents. Over the whole deposit, 450 (2.5%) got an active call. 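Single biological run; no consistent viability z cut-off exists, so the class columns, not z-scores, define the calls.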

no.	Gene	viability hit class	caspase hit class	viability robust z-score	caspase robust z-score	outcome
1	GLYAT	no change	no change	0.78	0.14	inactive
2	PLA2G2F	no change	no change	-0.53	-0.62	inactive
3	ITGA5	no change	no change	0.26	-0.63	inactive
4	EED	no change	no change	-1.15	1.67	inactive
5	HELLS	no change	no change	0.64	-0.37	inactive
6	RBPJL	no change	no change	-0.33	1.54	inactive
7	LUZP4	no change	no change	0.64	3.45	inactive
8	TMPRSS2	no change	no change	0.53	-0.6	inactive
9	IQCK	no change	no change	-0.94	1.02	inactive
10	GLB1	no change	no change	0.03	0.26	inactive
11	ASPA	no change	no change	-0.32	-0.96	inactive
12	DAD1	no change	no change	-0.42	1.26	inactive
13	HES5	no change	no change	-0.86	-0.34	inactive
14	PROSER3	no change	no change	-0.58	0.77	inactive
15	NLRP1	no change	no change	0.12	-0.94	inactive
16	DISP1	no change	no change	-0.33	-1	inactive
17	TERF1	no change	no change	0.11	-0.82	inactive
18	PGS1	no change	no change	0.5	0.5	inactive
19	KRT18P55	no change	no change	-1.09	0.8	inactive
20	ATG16L1	no change	no change	1.06	0.45	inactive
21	SULT1C3	no change	no change	-0.53	-0.94	inactive
22	OTC	no change	no change	-0.46	-0.08	inactive
23	RNF113A	no change	no change	0.88	-0.03	inactive
24	ABCD3	no change	no change	-0.56	0.26	inactive
25	CALHM6	no change	no change	-0.63	-1	inactive
26	NDST2	no change	no change	0.47	-1.27	inactive
27	BOLA2	no change	no change	-0.07	-1.3	inactive
28	MCAT	no change	no change	0.43	-1.07	inactive
29	INTS10	no change	no change	0.62	-0.93	inactive
30	GPR52	no change	no change	1.15	-0.2	inactive
31	C14orf180	no change	no change	-0.8	1.34	inactive
32	TAF9B	no change	no change	-0.66	2.01	inactive
33	TAF1A	no change	no change	1.39	-0.23	inactive
34	PTPRE	no change	no change	0.47	2.38	inactive
35	NSMCE1	no change	no change	-0.74	2.33	inactive
36	TENM3	no change	no change	1.04	-0.57	inactive
37	CIMAP1B	no change	no change	-1.19	-0.58	inactive
38	POU3F2	no change	no change	-1.14	1.96	inactive
39	BAMBI	no change	no change	0.86	-0.23	inactive
40	SLC22A23	no change	no change	0.32	-0.57	inactive
41	CHUK	no change	no change	0.53	1.07	inactive
42	DESI1	no change	no change	0.08	1.86	inactive
43	GNMT	no change	no change	1.66	0.05	inactive
44	TRIM64B	no change	no change	-0.6	3.3	inactive
45	NKD1	no change	no change	-0.07	1.29	inactive
46	SLC25A27	no change	no change	-1.76	2	inactive
47	KLF8	no change	no change	0.4	-0.92	inactive
48	RPUSD3	no change	no change	0.2	-0.96	inactive
49	NIF3L1	no change	no change	1.72	-0.28	inactive
50	RAB26	no change	no change	-1.11	3.35	inactive
51	LSS	no change	no change	0.48	-0.18	inactive
52	RAD51D	no change	no change	1.08	-0.4	inactive
53	PEX11G	no change	no change	-0.2	0.57	inactive
54	UGT2A1	no change	no change	1.14	-0.58	inactive
55	DCTPP1	no change	no change	-0.11	-0.53	inactive
56	PPP2R1A	no change	no change	-1.14	1.51	inactive
57	ABCE1	no change	no change	-0.13	-0.44	inactive
58	HTR2C	no change	no change	0.34	0.57	inactive
59	B3GALT5	no change	no change	-0.9	3.95	inactive
60	CXCL5	no change	no change	-0.92	-0.8	inactive
61	SGSM1	no change	no change	0.34	-0.62	inactive
62	POP1	RV2 (reduced viability)	no change	-3.19	2.04	active
63	NCAN	no change	no change	-2.82	2.78	inactive
64	MAT2B	no change	no change	-0.38	-0.07	inactive
65	LEPR	no change	no change	0.4	-0.7	inactive
66	NPIPB15	no change	no change	-1.6	-0.57	inactive
67	ACAP1	no change	no change	0.06	1.66	inactive
68	COX7A2L	no change	no change	-1.77	0.18	inactive
69	KCTD14	no change	no change	-1.08	2.01	inactive
70	GCDH	no change	no change	1.5	-0.86	inactive
71	MAT2A	RV2 (reduced viability)	no change	-3.48	0.38	active
72	TEK	no change	no change	1.23	-0.58	inactive
73	PLAU	no change	no change	-0.44	-0.96	inactive

7 successive reagents already listed, for reference:
no.	Gene	viability hit class	caspase hit class	viability robust z-score	caspase robust z-score	outcome
9	IQCK	no change	no change	-0.94	1.02	inactive
10	GLB1	no change	no change	0.03	0.26	inactive
11	ASPA	no change	no change	-0.32	-0.96	inactive
12	DAD1	no change	no change	-0.42	1.26	inactive
13	HES5	no change	no change	-0.86	-0.34	inactive
14	PROSER3	no change	no change	-0.58	0.77	inactive
15	NLRP1	no change	no change	0.12	-0.94	inactive
